Most values lie at the floor of the assay. Slopes are relative: functional sequences can read slightly below zero.
These substances were tested on Saccharomyces cerevisiae PS128 hsf1 delta, HSF1(1-493) fusion (assay: growth estimate (transactivation domain function in HSF1 fusion, heat-shock survival) (a.u. (slope of normalised read count over time)); higher = stronger growth at 37°C, i.e. more transactivation activity). Conditions: library: random library.

Substance | growth estimate
MQRFGAYIGRQPARAALSSG | < -0.25
STLWSLVPFRG | < -0.25
PVRGLSY | < -0.25
LGPGCLSPEQGQAVPAEVKA | < -0.25
TYASDNRVR | < -0.25
VLQVALALG | < -0.25
SISASFAYLTGSAEL | < -0.25
PSLYRGTTPGHFEATTTGRY | < -0.25
KRLS | < -0.25
KYI | < -0.25
GRVRDRSSKQPFKLL | < -0.25
LAAS | < -0.25
ESQAMHFGAISPPSMFFCPG | < -0.25
KVRPT | -0.245
KNPDERKTEGTNSGSFQYRF | < -0.25
QFVLFWRPRKVGQVSCRLCT | < -0.25
NTEQFGRAFPAGMLG | < -0.25
GSSLASVQS | < -0.25
ARVDNVRIVAPMAHVRHRHR | < -0.25
SCSDRGPKKCGACSTE | < -0.25
DFSSSHLKCFPYLGEASFEG | -0.237
RIRSLAALRNTATWCCTKRI | < -0.25
FWMGCLI | < -0.25

Shown with each value named: entries from further up.
KNPDERKTEGTNSGSFQYRF
  growth estimate = < -0.25
QFVLFWRPRKVGQVSCRLCT
  growth estimate = < -0.25

Next entries follow:

Substance | growth estimate
FQIAVGCSITARQRKL | < -0.25
DVISWPLAKTRIQNGGDTNT | -0.147
RLRQACLRGCAGVVTLVPWP | < -0.25
CVTTPLHTFIVR | < -0.25
YRIGKLLVVQ | < -0.25
GTVHLLPGFARAVKRCLRDT | < -0.25
CANMQSNSERYVLSGDPHQY | < -0.25
GLVGLACPALGGYVILSPRL | < -0.25
SGSIKRSGVTFSRLKSCHPT | < -0.25
IVRGCTQPANHCPI | < -0.25
GVEPQTPAARA | < -0.25
IRVKLM | < -0.25
IPVISNTCIRQ | < -0.25
LRLIGEDALAPFRTKGGIGG | < -0.25
DTAG | < -0.25
RHGSQRYGWSYHFPRSVDKV | < -0.25
VCLGRYQCVSLAVSPISGCE | -0.245
CLCE | < -0.25
DTDGRYQGAGEQGNIGPRYA | < -0.25
AAEYWLGRPRNRR | -0.248
QSVSA | < -0.25
ASEPRHSSTR | < -0.25
DNVPSY | -0.234

Exported with each value named: entries from further up
CVTTPLHTFIVR
  growth estimate = < -0.25
RHGSQRYGWSYHFPRSVDKV
  growth estimate = < -0.25

Next entries.

Substance | growth estimate
VAHSSLVNF | < -0.25
LVHKAQEILMGLTSRLPSTA | < -0.25
HVNVRVVQECGAAPEVGPKL | < -0.25
LQTQVILLVRMF | < -0.25
GCFRQYAF | < -0.25
SVAVKPIT | < -0.25
KDALNVCSYSRLQILSSCYT | < -0.25
SSRPEPRRPWARRTNGESNL | < -0.25
IGTPPLRGPEVTR | -0.208
SCPGSCRIMRRAWGVFICKA | < -0.25
GPCGCLYLQQLIFGEWPTTS | < -0.25
GMGKDERLWGTSDLLL | < -0.25
GALWPLSPHLLSRSRIYICA | < -0.25
WWREGQLPWCLECSPGQARR | < -0.25
MRRLVDPGKARKF | < -0.25
DLYRDDSRKYFCRARWSMLP | < -0.25
GTLGVWFPNA | < -0.25
SGNR | < -0.25
SLELGCGDLTALSIIPAGCR | < -0.25
VRGVGFRCWYTRQGVSKGFA | < -0.25
EGGYNGLVRR | < -0.25
LHSGVMICQNGRLGRERWLS | < -0.25
LSNGHQQAR | < -0.25

Substance | growth estimate
RGRVEHPYGRA | < -0.25
VIRCR | < -0.25
RQQ | < -0.25
TWFEGS | < -0.25
RSRYCASTCTEQSDGVVNLS | < -0.25
SRLNNMQIHRHAGAT | -0.139
LGCVASYRHETS | < -0.25
TSSGSH | < -0.25
QEKGVLTKVSEWHGGAKVHQ | < -0.25
EGENPRIAQMGLSRQVCGGP | < -0.25
AVLLSPSSRLIMRIVLHLLQ | < -0.25
GCTEDTLIDRRQETSRPNGT | < -0.25
DISPALRDWPGEQ | < -0.25
HHP | < -0.25
ILWMSKVIFFALVWRQLEGE | < -0.25
RIFSAVESIAANADPVHLTP | < -0.25
PNKY | < -0.25
KLLSDLTCLRLINGRPLKYN | < -0.25
DTRFPAHDLPLEGMAGPID | < -0.25
RNFVRSGHDSVDRGRNRVRG | < -0.25
VFSGSGEVGLLGHQSGFTRV | < -0.25
SRLWHSCKPRR | < -0.25
SAFRY | < -0.253

3 records picked at random from those above:
Substance | growth estimate
PNKY | < -0.25
IGTPPLRGPEVTR | -0.208
LVHKAQEILMGLTSRLPSTA | < -0.25

(list continues)

Substance | growth estimate
CPAEKVNDQHLIL | < -0.25
LTESRWSHTP | < -0.25
RSTGLLFEGLHIAQPMANEI | < -0.25
QSLVYSQRFLYRAVFNHE | < -0.25
VLFPAWLVRPRCSPDYQIVT | < -0.25
PGRNYVCGPRGFYRVTKVGT | < -0.25
FALVESSTAG | < -0.25
GRMVGRLADYYLLQLR | < -0.25
HIRDQPAKFDSVGS | < -0.25
TPRVDSLPAYRLDYRTLL | < -0.25
PAGSATTESPQNLGYYDCRR | < -0.25
SWNSVSL | < -0.25
KQKPGRTNHNFPVFGCE | < -0.25
PVIILVQAGIIWPNLHDEV | < -0.25
AHYGSNNHVRYNKLSRASQW | < -0.25
PLERRGT | < -0.25
PALRRLLGCFTV | < -0.25
GVETLETKTFGTCSI | < -0.25
PHVGHTVIRLFRSGRHRASR | < -0.25
RHHPR | < -0.25
ARL | < -0.25
MWRRAPPNPT | < -0.25
REEVRAQYLDPRNEVGR | -0.227

Substance | growth estimate
LFIADDWVRPLTQVT | < -0.25
CRRVF | -0.248
FQFQFGYMCRVSD | < -0.25
TTNVISVGW | < -0.25
TRCLATSVRLEVFMRIGGR | < -0.25
VTLGTGHKWQCLLPSPTGIT | < -0.25
LRIVGGVHDAS | < -0.25
DPVGESLRGTNT | < -0.25
AHSTATPELNLRGTVISISY | < -0.25
GLDEMA | < -0.25
DDLSEVVPSL | < -0.25
VRLVINLLGKN | < -0.25
YPPVTVELTVRRSADSGISA | < -0.25
LRWAYIEVECLAELRDLFSR | < -0.25
VNSRKAGGEFPLLA | < -0.25
ALNIQPAGSYETVILENSSS | < -0.25
PCTRNVDQ | < -0.25
ERFAG | < -0.25
CISKSTGWDDQYRAI | < -0.25
VEVWIPNLDEDNQEINLIVP | < -0.25
VFEPLSVVTRRAVLQRTVEA | < -0.25
GMVGIA | < -0.25
QDRGRSARS | < -0.25

Substance | growth estimate
FACGILLSD | < -0.25
LDM | < -0.25
LGCVMPANFRDSTPCFIDLT | < -0.25
KGALPDSAVAAARLTWHTGG | < -0.25
PGVMLRESELSIVGHA | < -0.25
NRELNREHTRRKHLACKDAV | < -0.25
SSAIEFYL | < -0.25
FVVRNP | -0.237
RDPAVEYRWGPAFLQTVRAE | < -0.25
WTILKVRWSDSYYGADKAIG | < -0.25
WCSKHIFQM | < -0.25
GHFEAYTRSTRRRANSGR | -0.172
TLP | < -0.25
TVNAEKDTKQSLGDVALSIK | -0.246
PNPQSLLSSSIPYSARLLGV | < -0.25
HTDLYGRKT | < -0.25
WGKLEDYVYTSSSVVFVGRL | < -0.25
LVTTLIAGGSGCGSLLPYFS | < -0.25
RADARLQSHYCWPERHRLGH | -0.246
SAQVSRGDAGGSWPTDAPSS | < -0.25
HTGCGSRKQANGHTRWSSAR | < -0.25

— the supplement of paper PMC5949888
